According to article PMC10754140:
No constants are given. Whether binding was seen depends on the method and setting. Binding seen in cells or lysates may run through a third protein. These calls come from enrichment with a bait or labelling near it, and not all partners need be listed.

Protein sequences, listed by entry. Tags and fused reporters are not part of them.
UniProt Q15154: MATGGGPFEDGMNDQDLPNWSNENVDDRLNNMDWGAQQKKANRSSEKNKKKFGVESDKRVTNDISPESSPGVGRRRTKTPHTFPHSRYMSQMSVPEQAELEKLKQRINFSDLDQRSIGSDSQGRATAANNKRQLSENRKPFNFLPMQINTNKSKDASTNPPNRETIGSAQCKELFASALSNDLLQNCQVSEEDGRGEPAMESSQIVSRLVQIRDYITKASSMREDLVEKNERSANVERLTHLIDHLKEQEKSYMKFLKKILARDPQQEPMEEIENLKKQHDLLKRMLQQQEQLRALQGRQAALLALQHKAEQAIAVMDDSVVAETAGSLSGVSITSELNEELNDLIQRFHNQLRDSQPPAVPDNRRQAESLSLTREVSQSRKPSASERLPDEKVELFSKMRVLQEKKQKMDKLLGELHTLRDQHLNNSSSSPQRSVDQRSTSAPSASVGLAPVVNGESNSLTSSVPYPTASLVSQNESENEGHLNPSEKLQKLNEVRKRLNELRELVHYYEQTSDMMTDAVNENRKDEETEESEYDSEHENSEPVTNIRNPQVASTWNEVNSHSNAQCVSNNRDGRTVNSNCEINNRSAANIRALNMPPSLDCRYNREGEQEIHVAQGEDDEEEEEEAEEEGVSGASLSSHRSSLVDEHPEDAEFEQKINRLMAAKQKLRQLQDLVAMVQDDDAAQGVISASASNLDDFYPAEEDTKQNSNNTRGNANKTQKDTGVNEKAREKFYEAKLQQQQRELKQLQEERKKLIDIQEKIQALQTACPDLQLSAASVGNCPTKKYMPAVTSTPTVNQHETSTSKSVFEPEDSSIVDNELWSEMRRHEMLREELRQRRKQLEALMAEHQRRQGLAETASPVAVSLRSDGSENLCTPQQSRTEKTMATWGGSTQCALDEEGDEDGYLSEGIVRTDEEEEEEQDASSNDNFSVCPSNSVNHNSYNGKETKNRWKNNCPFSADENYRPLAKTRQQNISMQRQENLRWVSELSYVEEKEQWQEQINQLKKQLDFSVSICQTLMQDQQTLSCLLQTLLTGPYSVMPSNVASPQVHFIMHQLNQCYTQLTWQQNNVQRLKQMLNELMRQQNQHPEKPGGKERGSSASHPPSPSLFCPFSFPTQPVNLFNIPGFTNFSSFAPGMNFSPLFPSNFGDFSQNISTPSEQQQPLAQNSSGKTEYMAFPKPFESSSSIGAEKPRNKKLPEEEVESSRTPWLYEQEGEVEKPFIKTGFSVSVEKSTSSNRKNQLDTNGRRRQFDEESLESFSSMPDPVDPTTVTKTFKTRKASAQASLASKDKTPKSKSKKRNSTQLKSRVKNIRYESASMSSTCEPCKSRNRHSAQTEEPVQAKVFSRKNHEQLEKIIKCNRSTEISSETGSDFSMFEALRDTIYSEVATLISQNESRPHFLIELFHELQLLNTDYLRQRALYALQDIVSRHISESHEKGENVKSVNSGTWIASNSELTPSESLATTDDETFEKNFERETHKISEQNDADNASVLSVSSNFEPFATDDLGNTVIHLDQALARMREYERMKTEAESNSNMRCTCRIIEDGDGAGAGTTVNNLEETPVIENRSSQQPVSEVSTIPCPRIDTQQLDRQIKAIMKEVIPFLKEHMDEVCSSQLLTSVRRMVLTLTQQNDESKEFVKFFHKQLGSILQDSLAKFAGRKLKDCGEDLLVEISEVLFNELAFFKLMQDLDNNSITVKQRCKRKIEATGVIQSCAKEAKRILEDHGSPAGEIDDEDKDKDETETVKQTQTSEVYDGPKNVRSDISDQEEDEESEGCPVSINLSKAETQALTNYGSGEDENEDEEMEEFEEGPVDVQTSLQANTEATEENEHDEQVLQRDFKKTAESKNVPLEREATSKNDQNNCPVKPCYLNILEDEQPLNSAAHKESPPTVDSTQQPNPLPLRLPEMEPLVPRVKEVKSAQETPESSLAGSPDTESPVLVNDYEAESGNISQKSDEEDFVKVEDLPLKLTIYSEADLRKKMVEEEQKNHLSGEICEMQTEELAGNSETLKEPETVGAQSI

Target: T1, O‐GlcNAc transferase (OGT), endogenous (human (endogenous in MCF10A)) (UniProt O15294)
T1 sequence: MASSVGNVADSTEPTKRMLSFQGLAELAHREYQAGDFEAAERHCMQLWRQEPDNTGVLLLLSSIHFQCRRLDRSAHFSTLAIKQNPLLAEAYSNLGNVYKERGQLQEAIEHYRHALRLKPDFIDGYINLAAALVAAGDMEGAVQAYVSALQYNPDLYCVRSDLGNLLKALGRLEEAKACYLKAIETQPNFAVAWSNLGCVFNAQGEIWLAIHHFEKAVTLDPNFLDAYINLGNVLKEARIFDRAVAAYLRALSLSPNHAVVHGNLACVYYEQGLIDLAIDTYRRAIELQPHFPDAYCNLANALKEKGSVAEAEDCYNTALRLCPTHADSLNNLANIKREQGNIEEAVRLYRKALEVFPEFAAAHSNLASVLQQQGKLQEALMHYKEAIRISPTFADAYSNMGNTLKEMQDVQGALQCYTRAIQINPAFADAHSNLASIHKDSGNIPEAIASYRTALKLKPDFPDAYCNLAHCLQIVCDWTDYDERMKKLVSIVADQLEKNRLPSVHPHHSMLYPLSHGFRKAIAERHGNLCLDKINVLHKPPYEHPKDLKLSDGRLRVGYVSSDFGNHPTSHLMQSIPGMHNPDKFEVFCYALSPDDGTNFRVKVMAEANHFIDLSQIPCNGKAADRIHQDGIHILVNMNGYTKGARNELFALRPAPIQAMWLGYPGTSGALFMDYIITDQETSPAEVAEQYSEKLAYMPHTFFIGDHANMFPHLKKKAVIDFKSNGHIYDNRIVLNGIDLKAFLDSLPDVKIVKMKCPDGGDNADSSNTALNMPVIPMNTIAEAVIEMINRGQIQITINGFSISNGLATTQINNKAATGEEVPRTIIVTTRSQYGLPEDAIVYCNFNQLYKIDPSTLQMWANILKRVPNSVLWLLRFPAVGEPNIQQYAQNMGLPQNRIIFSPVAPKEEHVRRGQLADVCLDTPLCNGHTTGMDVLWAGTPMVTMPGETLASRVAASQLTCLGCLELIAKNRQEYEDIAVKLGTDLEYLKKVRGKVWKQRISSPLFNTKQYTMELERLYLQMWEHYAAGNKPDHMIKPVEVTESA
Test: affinity purification with mass spectrometry; anti-OGT antibody used to immunoprecipitate endogenous OGT from MCF10A cell lysate; SDS-PAGE, Coomassie staining, tandem mass spectrometry

binding: binds
Substance: pericentriolar material 1 (PCM1), endogenous (from UniProt Q15154 1-2024)
